US20250064934A1 (CENTURY THERAPEUTICS, published 2025)
No constants are given. Whether binding was seen depends on the method and setting. Some binding calls cover weakened binding; strength is not graded here. Sequences can lack the tags named with a protein. Blank lines part the entries; values can stand above or below the binder they belong to.

Sequences of proteins named here, by UniProt entry; tags and fusion partners are left off. A change or cut given only in a name is not applied to a line headed by its entry. A line that says so, or that is headed by a name, gives the form on record, which may keep a tag or linker.
CD22Δ2-3 (P20273, form named): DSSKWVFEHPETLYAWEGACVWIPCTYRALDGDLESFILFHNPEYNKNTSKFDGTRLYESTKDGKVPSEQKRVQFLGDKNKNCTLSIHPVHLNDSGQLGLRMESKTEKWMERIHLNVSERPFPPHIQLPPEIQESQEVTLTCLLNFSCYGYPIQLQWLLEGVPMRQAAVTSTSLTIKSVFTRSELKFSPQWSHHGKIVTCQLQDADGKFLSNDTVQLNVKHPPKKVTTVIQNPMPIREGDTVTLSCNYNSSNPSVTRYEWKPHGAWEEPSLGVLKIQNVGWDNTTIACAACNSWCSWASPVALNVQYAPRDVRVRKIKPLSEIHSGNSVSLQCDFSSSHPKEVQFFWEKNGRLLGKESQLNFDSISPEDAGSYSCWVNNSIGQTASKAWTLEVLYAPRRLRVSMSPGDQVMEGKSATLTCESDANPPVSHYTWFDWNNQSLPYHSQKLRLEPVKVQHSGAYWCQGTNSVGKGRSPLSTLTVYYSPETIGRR

Key:
CD22Δ2-3 [1] = molecular target: CD22Δ2-3 (UniProt P20273); experiment: BLI (ForteBio Octet), VHH-Fc captured on anti-human IgG Fc biosensor tips
CD22Δ2-3 [2] = molecular target: CD22Δ2-3 (UniProt P20273); experiment: binding to full length CD22 and deletion variants (legend of FIG. 2)

binding (CD22Δ2-3 [1]): binds
binding (CD22Δ2-3 [2]): binds
B1: PROT265 (D04) VHH-Fc fusion protein (Fc fusion)
chain: QVQLVESGGGLVQAGGSLRLSCAASGSEFTGYPMGWFRQAPGKEREFVAGSVGIGGSTNYADSVKGRFTISRDNAKNTVYLQMNSLKPEDTAVYYCAADKDYYKPYSRYRTVIRYETWGQGTQVTVSS
notes: also called CD22_D04; not shown: human IgG1 Fc domain

binding (CD22Δ2-3 [1]): binds
binding (CD22Δ2-3 [2]): binds
B2: PROT740 (E04) VHH-Fc fusion protein (Fc fusion)
chain: EVQLLESGGGLVQPGGSLRLSCAASGFTSSSYVMGWYRQAPGKEREFVSSISTGGDAYYADSVKGRFTISRDNSKNTLYLQMNSLRAEDTAVYYCAADVWYYHGGAYDYWGQGTQVTVSS
notes: VHH fused to the human IgG1 Fc domain; not shown: human IgG1 Fc domain
